Experimental data from PMC11677236.
No constants are given. Whether binding was seen depends on the method and setting. In cells and extracts the contact can be indirect. Some binding calls cover weakened binding; strength is not graded here. Where a sequence is shown, tags or fusion partners need not be part of it.

Protein sequences, listed by entry. Tags and fused reporters are not part of them. Lines headed by an entry give the natural chain unless they say otherwise; changes in a name come on top. Chains listed by the source or under a name are the forms on record and can include a tag or linker. Residues count along the entry.
UniProt P14618: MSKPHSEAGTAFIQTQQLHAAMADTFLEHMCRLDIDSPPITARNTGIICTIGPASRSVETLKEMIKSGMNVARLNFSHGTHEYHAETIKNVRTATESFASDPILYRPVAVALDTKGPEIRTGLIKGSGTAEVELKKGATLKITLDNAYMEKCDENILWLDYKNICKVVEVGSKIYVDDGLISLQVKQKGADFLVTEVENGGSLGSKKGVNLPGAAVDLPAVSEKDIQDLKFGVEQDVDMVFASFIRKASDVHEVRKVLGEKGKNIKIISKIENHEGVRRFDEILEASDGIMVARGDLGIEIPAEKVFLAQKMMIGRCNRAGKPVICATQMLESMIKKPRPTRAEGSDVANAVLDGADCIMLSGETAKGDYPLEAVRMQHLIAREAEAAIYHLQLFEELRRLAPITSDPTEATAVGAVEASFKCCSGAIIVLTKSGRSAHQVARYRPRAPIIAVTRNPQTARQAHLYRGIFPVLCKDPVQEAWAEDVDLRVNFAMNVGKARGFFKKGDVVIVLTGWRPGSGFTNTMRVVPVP
Flag-tagged PKM2 fragment, amino acids 1-390 (NA1BA2): residues 1-390 of P14618
Flag-tagged PKM2 fragment, amino acids 1-219 (NA1B): residues 1-219 of P14618
Flag-tagged PKM2 fragment, amino acids 45-390 (A1BA2): residues 45-390 of P14618

Tests used:
Assay in all cases: co-IP; HEK-293T cells co-transfected with tagged constructs; lysed supernatant incubated with Tag-conjugated beads; western blot; for PKM2/HIF-1α with rising amounts of TIPE
Flag-tagged PKM2 = Flag-tagged PKM2 (UniProt P14618)
[1] = target: Flag-tagged PKM2 fragment, amino acids 45-390 (A1BA2) (UniProt P14618)
[2] = target: Flag-tagged PKM2 fragment, amino acids 1-219 (NA1B) (UniProt P14618)
[3] = target: Flag-tagged PKM2 fragment, amino acids 1-390 (NA1BA2) (UniProt P14618)

B1: HA-tagged TIPE fragment, amino acids 1-100 (M1) (domain or fragment, UniProt O95379 1-100)
chain: MHSEAEESKEVATDVFNSKNLAVQAQKKILGKMVSKSIATTLIDDTSSEVLDELYRVTREYTQNKKEAEKIIKNLIKTVIKLAILYRNNQFNQDELALME
- binding (Flag-tagged PKM2): binds

B2: HA-tagged TIPE fragment, amino acids 101-198 (M2) (domain or fragment, UniProt O95379 101-198)
chain: KFKKKVHQLAMTVVSFHQVDYTFDRNVLSRLLNECREMLHQIIQRHLTAKSHGRVNNVFDHFSDCEFLAALYNPFGNFKPHLQKLCDGINKMLDEENI
- binding (Flag-tagged PKM2): binds

B3: HA-tagged TIPE (protein, UniProt O95379 1-198)
chain: MHSEAEESKEVATDVFNSKNLAVQAQKKILGKMVSKSIATTLIDDTSSEVLDELYRVTREYTQNKKEAEKIIKNLIKTVIKLAILYRNNQFNQDELALMEKFKKKVHQLAMTVVSFHQVDYTFDRNVLSRLLNECREMLHQIIQRHLTAKSHGRVNNVFDHFSDCEFLAALYNPFGNFKPHLQKLCDGINKMLDEENI
- binding [1]: binds
- binding [2]: binds
- binding (Flag-tagged PKM2): binds
- binding [3]: binds
